# This is one part of the list. Further columns of the screen follow, without active or inactive calls. The list favours compounds with an active or inconclusive main result. Potencies come from curve fits of mixed quality, noted in brackets.
# Assay: qHTS Assay to Find Inhibitors of Chronic Active B-Cell Receptor Signaling
# Conditions: ABC-DLBCL IkBa-CBG/CBR reporter, luminescence ratio (green luciferase fused to IkBa over red control in TMD8 lymphoma cells), 4 h
# Outline: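 Compounds up to 46 uM were incubated four hours with TMD8 cells whose green CBG68 luciferase is fused to IkappaBalpha; red CBR luminescence normalised the signal, and concentration-effect curves were fitted to fusion, red and ratio data.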
# [1] = measured here: CBR red luminescence, cell number
# [2] = measured here: IkBa-CBG green luminescence
Compound,AC50 [1],AC50 [2]
CC(=O)N(CCC(c1ccco1)C(C)C)Cc1ccc(Cl)cc1 (stereo unspecified),"35.5 µM [falling, single point]",
Cn1c(=O)c2ncn(CC(=O)Nc3cccc(-c4nc5ccccc5s4)c3)c2n(C)c1=O,"0.224 µM [falling, full curve, poor fit]",
Cc1cc(C(=O)CSc2nnc(-c3cccs3)n2Cc2ccccc2)c(C)n1C,"35.5 µM [falling, partial curve, poor fit]",
O=C1NC(=O)/C(=C\c2ccc(OCc3cccc(C(=O)O)c3)c(Cl)c2)N1,"11.2 µM [falling, partial curve]",
O=C(O)Cc1c[nH]c2cccc(O)c12,"10 µM [falling, partial curve, poor fit]",
COc1cc(/C=N/NC(=O)c2cccc(NC(=O)c3ccccc3Cl)c2)ccc1O,"5.01 µM [falling, partial curve, poor fit]",
COC(=O)Nc1ccc(S(=O)(=O)NC2CCS(=O)(=O)C2)cc1 (stereo unspecified),"2.82 µM [rising, single point]",
O=C(O)c1cnn(-c2nc(-c3ccc(Cl)cc3)cs2)c1C(F)(F)F,"35.5 µM [falling, single point]",
COCC(=O)Nc1sc2c(c1C(=O)OC)CCCC2,"16.4 µM [rising, partial curve, poor fit]",
COC(=O)c1nnn(-c2cc(Cl)cc(Cl)c2)c1C(=O)OC,"2.82 µM [rising, full curve, poor fit]",
CN(/N=C/c1ccccc1Cl)c1ncc(Cl)cc1C(F)(F)F,"3.16 µM [rising, single point]",
C[C@]12c3[nH]c4cc(-c5ccco5)ccc4c3CCN1C(=O)[C@@H](CC(=O)NCCN1CCOCC1)C[C@@H]2C(=O)N1CCCCC1,"29.1 µM [falling, single point]",
CCOC(=O)CN(C(=O)CSc1nnc(Cc2ccccc2)n1-c1ccc(C)cc1)c1ccccc1,,"16.4 µM [rising, partial curve, poor fit]"
O=C(CSc1ccc(-c2ccccc2)nn1)N1CCCc2ccccc21,"4.61 µM [falling, partial curve, poor fit]",
Cc1ccc(/C=N/NC(=O)c2nn(C)cc2Cl)cc1,"4.11 µM [falling, partial curve]",
CS(=O)(=O)N(CC(=O)N1CCN(c2ccc(F)cc2)CC1)c1cccc(Cl)c1,"0.116 µM [falling, full curve, poor fit]",
Cc1noc(C)c1S(=O)(=O)Nc1ccc(C(=O)N2CCN(c3cccc(Cl)c3)CC2)cc1,"8.2 µM [falling, partial curve, poor fit]",
CCN(CC)C(=O)CSC(Nc1ccc(F)cc1)=C(C#N)C#N,"10 µM [falling, partial curve]","35.5 µM [rising, partial curve, poor fit]"
CC(C)COP(=O)(c1ccc(N(C)C)cc1)C(O)c1ccccn1 (stereo unspecified),"2.82 µM [rising, full curve, poor fit]",
CCNc1nc(N2CCCCC2)nc(-n2nnc(C(=O)OCC)c2C)n1,"6.51 µM [rising, single point]",
CN1CCc2c(sc3c2C(=O)NC(c2ccc(-c4ccc(Cl)cc4)o2)N3)C1 (stereo unspecified),"1.41 µM [falling, full curve]",

Compound,AC50 [1],AC50 [2]
CC(=O)Nc1ccc(NC(=O)C(F)(F)F)cc1,"16.4 µM [rising, partial curve, poor fit]",
Cc1ccc(C(=O)Nc2nccs2)cc1,"7.94 µM [falling, partial curve]",
Oc1ccc(-c2cccc(-c3ccc(O)cc3)n2)cc1,,"11.2 µM [falling, partial curve, poor fit]"
O=C(Nc1ccccc1)C(Cl)C(=O)c1ccccc1 (stereo unspecified),"12.6 µM [falling, partial curve, poor fit]","17.8 µM [falling, partial curve, poor fit]"
CC(Oc1ccc2ccccc2c1)C(=O)NNC(=S)NC(=O)c1ccco1 (stereo unspecified),"29.1 µM [rising, single point]",
CC(CCc1ccc(O)cc1)NC(c1ccccc1)c1ccc(Cl)cc1 (stereo unspecified),"25.1 µM [falling, single point]",
CC(=O)N(\C=C/C=C/C=C1\Sc2ccccc2C1=O)c1ccccc1,"2.24 µM [falling, full curve, poor fit]",
COc1ccc(C)c2sc(N(CCCN(C)C)C(=O)c3ccc(S(=O)(=O)N(C)C)cc3)nc12,"11.2 µM [falling, partial curve, poor fit]",
COc1cccc2cc(/C(=N/O)c3ccccc3)oc12,"35.5 µM [falling, single point]",
O=C1CCC([N+](=O)[O-])C(c2cccc(Cl)c2Cl)N1 (stereo unspecified),"32.6 µM [falling, single point]",
Cc1ccc(/C=N/n2c(C3CCCCC3)n[nH]c2=S)o1,"5.8 µM [rising, partial curve, poor fit]",
CC(C)C(C(=O)NCc1ccco1)N(Cc1ccco1)C(=O)CNS(=O)(=O)c1ccc(F)cc1 (stereo unspecified),"25.1 µM [falling, single point]",
CCC1Oc2ccc(C)cc2N(CC(=O)N(Cc2cccnc2)Cc2ccc(C)o2)C1=O (stereo unspecified),"0.82 µM [falling, full curve, poor fit]",
CCOC(=O)c1cccc(NC(=O)/C=C/c2ccc([N+](=O)[O-])cc2)c1,"6.51 µM [falling, partial curve]",
CCCOc1ccc(NC(=O)C2CC(=O)N3CCCN=C3S2)cc1 (stereo unspecified),"0.651 µM [falling, full curve]",
CC(C)c1nc(SCC(=O)Nc2nc3c(s2)CCCC3)c2ccccc2n1,"29.1 µM [falling, single point]",
CCOc1cc(C(=O)N/N=C/C(Br)=C/c2ccccc2)cc(OCC)c1OCC,"5.8 µM [rising, full curve]","7.31 µM [falling, partial curve]"
CN1CCN(C(=O)C2CCC(CNS(=O)(=O)c3cccc4cccnc34)CC2)CC1 (stereo unspecified),"29.1 µM [rising, single point]",
CCOC(=O)c1cc(-c2ccc(F)cc2)n(CCC(=O)NCc2ccc(C)cc2)c1C,"3.16 µM [rising, partial curve, poor fit]",
Nn1c(C2CCC2)nc2cc(Cl)ccc2c1=O,"12.6 µM [rising, partial curve]",
N#CCCN(C(=O)COC(=O)c1ccc(S(=O)(=O)N2CCCC2)cc1)c1cccc(Cl)c1,"4.11 µM [rising, full curve, poor fit]",

Compound,AC50 [1],AC50 [2]
O=C(/C=C/c1cccc(Br)c1)NC1CCN(Cc2ccccc2)CC1,"35.5 µM [falling, single point]",
CNC(=S)N/N=C/c1cc(Br)c(OCc2ccncc2)c(OC)c1,"15.8 µM [rising, single point]","12.6 µM [falling, single point]"
COc1ccc(C(=O)C(CCCCC(CN(C)C)C(=O)c2ccc(OC)cc2)CN(C)C)cc1 (stereo unspecified),"12.6 µM [falling, partial curve]",
O=C1c2ccccc2C(=O)N1CCc1c[nH]c2ccc(O)cc12,"20 µM [falling, single point]",
CCOC(=O)NC1(Nc2cccc(Cl)c2)Oc2ccccc2O1,"3.26 µM [rising, single point]",
Fc1ccc(N2N=C(c3cccs3)CC2c2ccccc2)cc1 (stereo unspecified),"7.08 µM [rising, partial curve]",
O=C(Nc1ccnn1C1CCN(C2CCCC2)CC1)c1ccccc1,"35.5 µM [falling, single point]",
O=C(CCCCl)NC1=NN(c2ccccc2)C(=O)C1,"29.1 µM [falling, single point]",
CC(C)(C)c1ccc(S(=O)(=O)NCc2ccc(C(=O)N3CCCC3)cc2)cc1,"29.1 µM [falling, single point]",
O=C(N/N=C/c1ccc(N2CCOCC2)s1)c1ccc(NS(=O)(=O)c2cccs2)cc1,"11.2 µM [falling, partial curve, poor fit]",
O=C(Nc1ccc(S(=O)(=O)N2CCCC2)cc1)N1c2ccccc2Sc2ccccc21,"3.55 µM [rising, partial curve, poor fit]",
Cc1onc(-c2c(Cl)cccc2Cl)c1C(=O)NCC1CCCO1 (stereo unspecified),"0.731 µM [rising, full curve, poor fit]",
COc1ccc(NC(=O)c2nn(C)c(C(=O)Nc3ccc(OC)cc3)c2[N+](=O)[O-])cc1,"25.1 µM [rising, single point]",
Cc1ccc(NC(=O)CSc2nnc(-c3ccco3)o2)cc1,"6.31 µM [rising, single point]",
Clc1ccc(Cc2noc(Cc3ccccc3)n2)cc1Cl,"20.6 µM [rising, partial curve, poor fit]",
O=S1(=O)[C@H]2C[C@H](CO)O[C@@]2(CO)CN1Cc1ccc(-c2cccc(Cl)c2)cc1,"0.259 µM [rising, full curve, poor fit]","0.82 µM [falling, partial curve]"
CC(=O)Oc1ccc(C(=O)NCCc2ccccc2)cc1,"7.94 µM [falling, partial curve, poor fit]",
CCNC(=S)N/N=C/c1ccc(OCC(=O)Nc2ccc(OC)cc2)c(OC)c1,"4.11 µM [rising, full curve]",
Cc1ccc2c(c1)sc1nc(=O)n(-c3cccc(Cl)c3)c(=O)n12,"1.26 µM [rising, full curve, poor fit]",

# Reference: PubChem BioAssay AID493014 (National Center for Advancing Translational Sciences (NCATS), 2011)
